These are yes or no findings as the source states them, for the method shown. In cells and extracts the contact can be indirect. These calls come from enrichment with a bait or labelling near it, and not all partners need be listed.

B1: RRP1 (protein, UniProt P56183 1-494)
chain: MVPGVPLPPEIQLAQRLAGNEQVTRDRALRKLRKYIEARSQRATGGFTPDELLKVWKGLFYCMWMQDKPLQQEELGRTIAQLVHAFHTTEAQHQFLKAFWQTMIREWVGIDRLRLDKFYMLMRMVLSESLKAVKARGWDERQIEQLLELLTTEILNPDSQAPSGVKSHFLEIFLEELAKVGAAELTADQNLQFIDPFCQIAARTKDSQVLHKIIQSIFQTIVEQAPLAIEDIMNELDTQSGEGEASDGDDGEASDGDDGEASDDDDGEASDGGDGDVADSDDSDGADDDDGDVSDGDGGDNDEGDSNKSSEGEQDLQDTPPKKLPAGTAHRAGPEADKEQAWDDEENAGPVLQFDYEALANRLFKLASRQSTPSQNRKRLYKVIQKLRELAGGTFPEDDVPEKAYKKMLEGRRERKKKKKRLPKPQPQNKEAGSEAESSSADPGPGRKRKRNRKTDEKAGQGGPPGKRRKPGARAKGAGAQQPKKRIQSSQSAE
B2: RRP8 (protein, UniProt Q9DB85 1-457)
chain: MFEEPEWVEAAPAIVGLGAATAQVRPATAPPVKGRKRRHLLATLRALEAASLSQQTPSLPGSDSEEEEEVGRKKRHLQRPSLASVSKEVGKKRKGKCQKQAPSISDSEGKEIRRKCHRQAPPLGGVSAGEEKGKRKCQEYSSLHLTQPLDSVDQTVHNSRTSTATIDPSKPSPESMSPNSSHTLSRKQWRNRQKNKRRHKNKFRPLQTPEQAPPKASIEETEVPPVPKSDSQESRAGALRARMTQRLDGARFRYLNEQLYSGPSSAARRLFQEDPEAFLLYHRGFQRQVKKWPLHPVDRIAKDLRQKPASLVVADFGCGDCRLASSVRNPVHCFDLASLDPRVTVCDMAQVPLEDESVDVAVFCLSLMGTNIRDFLEEANRVLKTGGLLKVAEVSSRFEDIRTFLGAVTKLGFKIIYKDLTNSHFFLFDFEKTGPPRVGPKAQLSGLKLQPCLYKRR
B3: NUFP2 (protein, UniProt Q5F2E7 1-692)
chain: MEEKPGQPQPQHHHSHHHPHHHPQQQQQQQSHHHHHYYFYNHSHNHHHHHHHQQPHQYLQHGAEGSPKAQPKPLKHEQKHTLQQHQETPKKKTGYGEINGNAGEREISLKSLSSDEATNPISRVLNGNQQVVETSLKQTVKTSTFGKAGIKTKNFIQKNSMDKKNGKSYENKSGETQAVDKTDTIAIPNGVITSSSGYITNGYMSKGADNDGSGSESGYTTPKKRKARRNSAKGCENLNLVQDKIMQETSVPALKQGLETLKPDYSEQKGMRVDGSKPIWKYETGPGGTSRGKPAMGDVLRKSSDIKPGLSSKKFDDRPKGKHASAAASKEDSWTLFKPPPVFPVDNSSAKIVPKISYASKVKENLNKTVQNSSVSPSSSSSSSSTGETQTQSSSRLSQVPMSALKSVTSASFSNGPVLAGTDGSVYPSGGQPLLTTAANTLTPISTGTDSVLQDMSLASAAVEQIKSSLFIYPSNMQTVLLSAQVDLPSQTDQQNLGDIFQNQWGLSFINEPSAGPETVIGKSSDHKVMEVTFQGEYPATLVSQGAEIIPSGTEHPVFPKAYELEKRTSPQVLGHILKPGTTESGALSLDPSHIGDLQKADTSSQGALVFLSKDYEIENQNPLASPTNTLLGSAKEQRYQRGLERNDSWGSFDLRAAIVYHTKEMESIWNLQKQDPKRIITYNEAMDSPDQ
B4: BRX1 (protein, UniProt Q9DCA5 1-353)
chain: MAATKRKRRGGLEVQAKKPKRSSKDAGQPAKQADVAKEAEEENRDRIPGPVCKGKWKNKERILIFSSRGINFRTRHLMQDLRMLMPHSKADTKMDRKDKLFVINEVCEMKNCNKCIYFEAKKKQDLYMWLSNSPHGPSAKFLVQNIHTLAELKMTGNCLKGSRPLLSFDPAFDDLPHYALLKEFLIQIFSTPRYHPKSQPFVDHVFTFTILDNRIWFRNFQIIEEDAALVEIGPRFVLNLIKIFQGSFGGPTLYENPHYQSPNMHRRVIRSITAAKYRERQQVKDVQKLRKKEPKTILPHDPTADVFVIPAEEKPVEIQWVKPEPKVDLKARKRRIYKRHRKLQQKMSRGSAK
B5: Rrs1 (protein, UniProt Q9CYH6 1-365)
chain: MEGQRVEELLAKAEQEEAEKLQRITVHKELELEFDLGNLLASDRNPPTVLRQAGPSPEAELRALARDNTQLLINQLWRLPTERVEEAVVARLPEPATRLPREKPLPRPRPLTRWQQFARLKGIRPKKKTNLVWDEASGQWRRRWGYKRARDDTKEWLIEVPGSADPMEDQFAKRTQAKKERVAKNELNRLRNLARAHKMQMPSSAGLHPTGHQSKEELGRAMQVAKVSTASVGRFQERLPKEKAPRGSGKKRKFQPLFGDFAAEKKNQLELLRVMNSKKPRLDVTRATNKQMREEDQEEAAKRRKMSQKGKRKGGRQGPSGKRKGGPPGQGEKRKGGLGSKKHSWPSALAGKKKGVPPQGGKRRK
B6: RRP9 (protein, UniProt Q91WM3 1-475)
chain: MSTAVATRKRAKPAPGPGAAPVAGKRRRKVDSAADRGKSKGGGKMNEEISSDSESESLAPRKTEEEEEEELEETAQEKKLRLAKLYLEQLRQQEEEKAEARAFEEDQVAGRLKEDVLEQRGRLQKSVAKEIQAPAPTDIRVLRGHQLSITCLVITPDDLAIFSAAKDCTIIKWSVETGRKLHVIPRAKKGAQGQPAGHSSHVLCMAISSDGKYLASGDRSKLILIWEAQSCQHLYTFTGHRDAVSGLAFRKGTHQLYSTSHDRSVKVWNAAENSYVETLFGHQDAVAALDALSRECCVTAGGRDGTVRVWKIPEESQLVFYGHQGSIDCIHLINEEHMVSGADDGSVALWGLSKKRPLALQREAHGLHGEPGLEQPFWVSSVAALLNTDLVATGSHNARVRLWQCGEGFRQLDPLCDIPLVGFINSLKFSSAGDFLVAGVGQEHRLGRWWRIKEARNSVCIIPLRRLPVSPVAGS
B7: Ddx47 (protein, UniProt Q9CWX9 1-455)
chain: MAADEEPDSPSGALQTAAEEEETKTFKDLGVTDVLCEACDQLGWAKPTKIQIEAIPLALQGRDIIGLAETGSGKTGAFALPILNALLETPQRLFALVLTPTRELAFQISEQFEALGSSIGVQCAVIVGGIDSMSQSLALAKKPHIVIATPGRLIDHLENTKGFNLRALKYLVMDEADRILNMDFETEVDKILKVIPRDRKTFLFSATMTKKVQKLQRAALKNPVKCAVSSKYQTVEKLQQYYLFIPSKFKDTYLVYILNELAGNSFMIFCSTCNNTQRTALLLRNLGFTAIPLHGQMSQSKRLGSLNKFKAKARSILLATDVASRGLDIPHVDVVVNFDIPTHSKDYIHRVGRTARAGRSGKAITFVTQYDVELFQRIEHLIGKKLPVFPTQDEEVMMLTERVNEAQRFARMELREHGEKKKRKREDAGDDDDKEGAIGVRNKVAGGKMKKRKGR
B8: Ddx51 (protein, UniProt Q6P9R1 1-639)
chain: MALFHIARYAGPEAAGQGDTDAEAGSRARVLLERLQNRARERQQREPELETTGTAGEGEAAAAGKRRRRPRRRRRVSGSATPNSEAPRAKRRKADKDVDAGRGEEAPEELSAGAEDPGANPQEDVQRPPAPGRVLGDFARRKTPKVQPFLPAWLAKPSCVKKSVTEDLTPIEDIPEVHPDLQKQLRANGITSYFPVQAAVIPALLESADHGFLIGRGGYQPSDLCVSAPTGSGKTLAFVIPVVQALLHRVVCHIRALVVLPTKELAQQVSKVFNIYTDTTPLRVALVTGQKSLAKEQESLVQKTADGFRCLADIVVATPGRLVDHIDQTPGFSLQQLRFLIIDEADRMIDSMHQSWLPRVVAAAFYSEGPTGSCALLQRTQPQALTAASTCVPQMPLQKLLFSATLTQDPEKLQRLGLYQPRLFSTRLGQQSPKDTAEVDENSGKYTFPVGLTHHYVPCRLSSKPLIVLHLVLRMSCSRALCFTNSRENSHRLYLLAQAFGGVSVAEFSSRYGPGQRKKILKQFEQGKIQLLISTDATARGIDVQGVELVINYDAPQYLRTYVHRVGRTARAGKTGQAFTLLLKVQERKFLQMVSEAGVPELTHHEIPRKLLQPLVARYETALSQLEKTVKEEQKLKAA

In this assay the target is GFP-tagged G3BP1 (Ras-GTPase activating SH3 domain binding protein 1). In words: affinity purification with mass spectrometry.
On to B1, for which the binding result is recorded as “binds”.
In the case of B2 it was “binds”.
Then B3, with “binds”; and B4, with “binds”; and B5, with “binds”.
Then B6, with “binds”.
As to B7, the binding entry is recorded as “binds”.
In the case of B8 it was “binds”.

For the origin of these results see publication doi:10.1101/490318.
